PubChem BioAssay AID686943 – Drosophila RNAi Screening Center, 2013

- Purpose: 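Knockdowns that increase or decrease active ERK after insulin receptor stimulation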 (primary screen)
- Cells: Drosophila S2R+ haemocyte-like cells expressing YFP-tagged ERK (Rolled)
- Reagent: long dsRNA against Drosophila genes
- Conditions: insulin stimulation versus unstimulated cells; dose and duration not given
- Measurement: 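Per-plate z-scores of phospho-ERK immunostaining normalised to YFP-tagged ERK, measured with and without insulin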
- Scale: replicate 1, z-score of dpERK with insulin: higher = more active ERK per ERK-YFP after insulin
In all, the deposit lists about 23,000 reagents; shown is a random part of those that have a named target and a result. 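Extra replicates exist only for a retested subset of genes; insulin dose and duration not given; both raised and lowered dpERK matter.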 The numbers tell different reagents against one gene apart. Names joined by + are all predicted targets of the reagent. Not all columns of the deposit are shown. Reagent sequences are not shown. Not given: the amount of reagent, the time to read-out.

With knock-down of GstE9, the screen gave replicate 1, z-score of dpERK with insulin -0.03. With knock-down of CG33337, the screen gave replicate 1, z-score of dpERK with insulin 0.24. Silencing of CG3604 came out at: replicate 1, z-score of dpERK with insulin -0.82. With knock-down of CG30427 #1, the record shows replicate 1, z-score of dpERK with insulin 0.03. After knock-down of CG30427 #2, the record shows replicate 1, z-score of dpERK with insulin 0.49. For CG30427 #3, the entry reads replicate 1, z-score of dpERK with insulin -1.8.

Silencing of Tim23 gave: replicate 1, z-score of dpERK with insulin -0.07. With knock-down of CG43394 #1 the results were replicate 1, z-score of dpERK with insulin -1.15. Against CG43394 #2, the values are replicate 1, z-score of dpERK with insulin -0.05. klg #1 gave replicate 1, z-score of dpERK with insulin -2.73. klg #2 scored replicate 1, z-score of dpERK with insulin -0.07. Depletion of CG34382 #1 came out at: replicate 1, z-score of dpERK with insulin 0.62.

CG34382 #2 showed replicate 1, z-score of dpERK with insulin 0.63. After knock-down of CG34382 #3, the screen gave replicate 1, z-score of dpERK with insulin -0.46. GrlHz gave replicate 1, z-score of dpERK with insulin -0.43. Silencing of CG15375 gave: replicate 1, z-score of dpERK with insulin 0.99. Against CG13070, the values are replicate 1, z-score of dpERK with insulin -0.08. For CG7741 the deposit lists replicate 1, z-score of dpERK with insulin 0.84.

With knock-down of CG14294 the results were replicate 1, z-score of dpERK with insulin 1.07. After knock-down of neur + asRNA:CR31429, the screen gave replicate 1, z-score of dpERK with insulin 0.08. Nf1 showed replicate 1, z-score of dpERK with insulin 0.48. Depletion of CG4073 came out at: replicate 1, z-score of dpERK with insulin 0.36. For CG10428 the deposit lists replicate 1, z-score of dpERK with insulin -0.07. With knock-down of Cyp313a1 the results were replicate 1, z-score of dpERK with insulin 1.02.

Silencing of CG14086 came out at: replicate 1, z-score of dpERK with insulin 0.82. Knock-down of tral resulted in: replicate 1, z-score of dpERK with insulin -0.94. Depletion of CG43174 (retired record) came out at: replicate 1, z-score of dpERK with insulin -0.16. Against fan, the entry reads replicate 1, z-score of dpERK with insulin 0.5. For CG13404, the entry reads replicate 1, z-score of dpERK with insulin 0.32. CG12880 gave replicate 1, z-score of dpERK with insulin -0.78.

With knock-down of GlyT, the screen gave replicate 1, z-score of dpERK with insulin 0.5.

Quoted from above for reference:
CG4073: replicate 1, z-score of dpERK with insulin = 0.36
CG10428: replicate 1, z-score of dpERK with insulin = -0.07
Cyp313a1: replicate 1, z-score of dpERK with insulin = 1.02
